Values joined by “and” are separate entries in the source; they are usually repeats but may differ in a detail not shown here. Equal entries are not always repeated. Screen size: about 400,000 compounds; about 5,500 (1.4%) were called active. Inconclusive results, whose numbers are uncertain, are shown with a selection of clear calls. Calls come from the whole dose curve; as a rule, active = well fitted cell-killing curve with a large enough effect; inconclusive = small, poorly fitted or top-dose-only effect, or effect the other way; inactive = flat fitted curve, though single readings scatter. Potencies beside an inconclusive call are fits to weak or partial responses and may not hold up.
Experiment: qHTS assay for MDR1-selective chemotherapeutics: Primary screen using the parental adenocarcinoma cell KB-3-1; note: nearly all actives have a fitted effect of over 60% in size
Details: KB-3-1 viability, CellTiter-Glo ATP luminescence, 72 h; activity change, negative = cytotoxic: at 46.1 µM (top of the series)
Outline: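 KB-3-1 cells, DMEM (no phenol red) + 10% FBS; compound by pin transfer, 72 h, 37 °C. Readout: CellTiter-Glo luminescence after 10 min. Data normalized, curve-fitted.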
For `c1ccc(CCc2cccnc2)cc1`, the activity change, negative = cytotoxic was inconclusive: 0%. In the case of `Cc1ccc(/C(=N/Nc2nc3ccccc3s2)C2=C(O)c3ccccc3C2=O)cc1`, the Potency is reported as inconclusive: 23.1 µM [cytotoxic, single point]. In the case of `NC(=S)N/N=C/c1cn(-c2ccccc2)nc1-c1cccnc1`, the Potency is reported as inconclusive: 18.4 µM [cytotoxic, single point]. In the case of `CCn1c2ccccc2c2cc(/C=N/NC(=O)c3ccccc3C)ccc21`, the Potency is reported as active: 20.6 µM. With `Cc1noc(NS(=O)(=O)c2ccc(NC(=O)C(F)(F)C(F)(F)C(F)(F)F)cc2)c1C` the Potency was “inactive”. For `CC1CCC2(CC1)NC(=O)N(CC(=O)Nc1ccc3c(c1)CCC3)C2=O` (stereo unspecified), the Potency was inconclusive: 16.4 µM [cytotoxic, single point]. In the case of `O=C(Nn1c(C2CCCCC2)nc2ccccc2c1=O)c1ccc([N+](=O)[O-])cc1`, the Potency is reported as “inactive”. For `O=C(Nc1ccc(Cl)cc1)Nn1cnnc1`, the Potency was “inactive”. For `Cc1cccc(OCCCc2c(C)n[nH]c2C)c1`, the Potency was inconclusive: 20.6 µM [cytotoxic, partial curve]. In the case of `CN(c1ccccc1)S(=O)(=O)c1ccc(C(=O)OCC(=O)NC(N)=O)cc1`, the Potency is reported as “inactive”. In the case of `O=c1nc(Nc2ccc(OCc3ccccc3)cc2)sc2ncccc12`, the Potency is reported as inconclusive: 0.164 µM [cytotoxic, full curve]. With `COc1ccc(CC(N)c2csc(NC(=O)Nc3cccc(C(F)(F)F)c3)n2)cc1` (stereo unspecified) the Potency was inconclusive: 29.1 µM [cytotoxic, single point]. With `Cn1c(=O)[nH]c(=O)c2c1nc(SCC(=O)Nc1ccccc1)n2Cc1ccccc1` the Potency was inconclusive: 32.6 µM [rising, single point]. In the case of `COc1ccc(CNC(=O)c2ccc3c(=O)n4c(nc3c2)CCCCC4)cc1OC`, the Potency is reported as inconclusive: 20.6 µM [cytotoxic, single point]. In the case of `CCOc1ccccc1N1CCN(C(=O)c2cc(-c3cc(OC)ccc3OC)nc3ccccc23)CC1`, the Potency is reported as inconclusive: 16.4 µM [cytotoxic, partial curve, poor fit]. For `C=CC(COCc1ccccc1)N([C@@H](Cc1ccccc1)C(=O)OC)S(=O)(=O)c1ccccc1Br` (stereo partly specified), the Potency was inconclusive: 23.1 µM [cytotoxic, single point]. In the case of `COc1ccc(C2CC(=O)c3c(C)nc(N4CCN(Cc5ccccc5)CC4)nc3C2)cc1OC` (stereo unspecified), the Potency is reported as inconclusive: 14.6 µM [cytotoxic, partial curve, poor fit]. With `Cc1cc(-c2ccco2)n(CC(=O)NCCCc2ccccc2)n1` the Potency was inconclusive: 29.1 µM [rising, single point]. With `Cc1ccc(Cl)c(NC(=O)COC(=O)c2ccccc2C(=O)c2ccc(Cl)c([N+](=O)[O-])c2)c1Cl` the Potency was inconclusive: 11.6 µM [cytotoxic, partial curve, poor fit]. In the case of `Cc1cc(Cl)n2c(nc3cc(F)c(F)cc32)c1C#N`, the Potency is reported as active: 7.31 µM. With `O=S1(=O)CC(N2CCN(Cc3ccccc3F)CC2)CN1Cc1cn(Cc2ccc(F)cc2)nn1` (stereo unspecified) the Potency was inconclusive: 16.4 µM [cytotoxic, single point]. In the case of `O=[N+]([O-])c1ncc(Br)cc1Nc1ccccc1`, the Potency is reported as inconclusive: 29.1 µM [cytotoxic, single point]. With `COc1cc(CNc2ncnc3c2[nH]c2ccc(C)cc23)cc(OC)c1` the Potency was “inactive”. For `COc1ccc(CC(N)c2csc(Nc3ccccn3)n2)cc1` (stereo unspecified), the Potency was “inactive”. In the case of `c1ccc2c(c1)CCN(c1nc(CN3CCOCC3)nc3sc4c(c13)CCCC4)C2`, the Potency is reported as inconclusive: 18.4 µM [cytotoxic, single point]. In the case of `O=C1C=C(N2CCOCC2)C2(CCCCC2)O1`, the Potency is reported as inconclusive: 3.66 µM [rising, full curve, poor fit]. In the case of `CSCC[C@H](NC(=O)COc1ccc(Cl)cc1)c1nc2ccccc2[nH]1`, the Potency is reported as “inactive”. For `COCCNC(=O)/C(C#N)=C/c1ccc(SC)cc1`, the Potency was inconclusive: 29.1 µM [rising, single point]. With `COc1ccc(-c2cc3nc(C)cc(N)n3n2)cc1` the Potency was inconclusive: 11.6 µM [cytotoxic, partial curve, poor fit]. For `Cc1ccc(Nc2cc(C)nn2-c2nc(C)cc(C)n2)cc1`, the Potency was inconclusive: 20.6 µM [cytotoxic, single point]. With `Cc1ccc(C(=O)C(C)OC(=O)Cn2c(C)csc2=O)cc1` (stereo unspecified) the Potency was inconclusive: 0.058 µM [rising, full curve]. For `COc1ccc(C(=O)/C=C/Nc2c(C)n(C)n(-c3ccccc3)c2=O)cc1OC`, the Potency was inconclusive: 25.9 µM [cytotoxic, partial curve, poor fit]. For `CCOC(=O)c1[nH]c2ccc(OC)cc2c1NC(=O)CN1CCc2ccccc2C1`, the Potency was inconclusive: 25.9 µM [cytotoxic, single point]. With `CCOC(=O)Cn1c(=O)n(C2CCCCC2)c2nc(-c3ccc(C(C)C)cc3)nc(C(N)=O)c21` the Potency was inconclusive: 20.6 µM [cytotoxic, single point]. For `O=C(Cc1ccccc1)Nc1ccc(NC(=O)C2CC2)nc1`, the Potency was “inactive”. For `CCOC(=O)CNc1nc(C#N)nc(N2CCOCC2)n1`, the activity change, negative = cytotoxic was inconclusive: -45.7% [cytotoxic]. With `CCC(C(=O)N1CCN(c2cc(C)ccc2C)CC1)n1nc(C)n2c(cc3occc32)c1=O` (stereo unspecified) the Potency was inconclusive: 29.1 µM [cytotoxic, single point]. For `COc1ccc(N=c2cc(-c3ccc(O)cc3)oc3ccccc23)cc1`, the Potency was inconclusive: 29.1 µM [cytotoxic, single point]. In the case of `Cc1ccc(NC(=O)c2nc(S(=O)(=O)Cc3ccccc3C)ncc2Cl)cc1C`, the Potency is reported as inconclusive: 18.4 µM [cytotoxic, single point]. In the case of `COc1cc(O)ccc1C(=O)CCc1ccc(O)cc1`, the Potency is reported as “inactive”. With `CC(C)CC1Nc2ncnc(N3CCN(c4ccccc4)CC3)c2N(Cc2ccc(Cl)cc2)C1=O` (stereo unspecified) the Potency was “inactive”. With `COc1ccc(S(N)(=O)=O)cc1C(=O)OCCCC(=O)c1ccccc1` the Potency was “inactive”. In the case of `OC(COc1ccc(Cl)cc1)CN1C2=NCCCN2c2ccccc21` (stereo unspecified), the Potency is reported as inconclusive: 25.9 µM [cytotoxic, single point]. In the case of `COc1ccc(NC(=O)C2CCN(c3ccc(Sc4ccc(C)cc4)nn3)CC2)c(OC)c1`, the Potency is reported as inconclusive: 14.6 µM [cytotoxic, partial curve, poor fit]. For `S=C(NCCc1ccccc1)Nc1cccc2cnccc12`, the Potency was active: 4.11 µM. For `CN(CC(=O)Nc1cccc(F)c1)C(=O)c1cccc(S(=O)(=O)N2CCN(c3ccc(F)cc3)CC2)c1`, the Potency was inconclusive: 29.1 µM [cytotoxic, single point]. For `COc1ccccc1CN1CC(C(=O)N(Cc2cnn(C)c2)C(C)C)CCC1=O` (stereo unspecified), the Potency was “inactive”. In the case of `Cc1csc(NC(=O)CN2C(=O)COc3ccc(Cl)cc32)n1`, the Potency is reported as “inactive”. In the case of `CCOC(=O)NN1C(=O)c2ccccc2NC1c1cccc(O)c1` (stereo unspecified), the Potency is reported as inconclusive: 0.0259 µM [cytotoxic, full curve]. For `O=C(CSc1ccc(-c2ccccn2)nn1)Nc1ccc(F)cc1F`, the Potency was inconclusive: 18.4 µM [cytotoxic, single point] and inconclusive: 16.4 µM [cytotoxic, single point]. For `CC(=O)Oc1ccc(-c2nc(-c3ccccc3)no2)cc1`, the Potency was inconclusive: 18.4 µM [cytotoxic, partial curve, poor fit]. For `COc1ccc(Nc2nc3cc(-c4sccc4C)sc3c(=O)n2C)cc1OC`, the Potency was active: 5.8 µM. For `COc1ccccc1/C=C1\SC(=S)N(CCC(=O)Nc2nnc(C)s2)C1=O`, the Potency was inconclusive: 29.1 µM [cytotoxic, single point]. In the case of `CC1(C)C2CC=C(/C=N/NC(=S)NCCc3ccccc3)C1C2` (stereo unspecified), the Potency is reported as inconclusive: 29.1 µM [cytotoxic, single point]. For `COc1cc(C(=O)ONC(=O)c2ccc(OC(F)F)cc2)cc(OC)c1OC`, the Potency was inconclusive: 18.4 µM [cytotoxic, single point]. For `CCCCCCSc1nnc2c(n1)OC(C)Nc1ccc(Br)cc1-2` (stereo unspecified), the Potency was inconclusive: 23.1 µM [rising, partial curve, poor fit]. In the case of `O=C(Nc1nc2ccccc2[nH]1)c1ccc(Cl)c(S(=O)(=O)N2CCCC2)c1`, the Potency is reported as inconclusive: 29.1 µM [cytotoxic, single point]. With `COc1ccccc1Oc1ccc(NC(=O)c2ccc(Cl)cc2)cc1` the Potency was inconclusive: 4.61 µM [cytotoxic, full curve, poor fit]. In the case of `COc1ccc2c(c1)CC/C(=C/c1ccncc1)C2=O`, the Potency is reported as inconclusive: 5.8 µM [cytotoxic, partial curve]. For `CCOc1ccc(N(C)S(=O)(=O)c2ccc(C)c(C(=O)NCc3ccccc3OC)c2)cc1`, the Potency was inconclusive: 20.6 µM [cytotoxic, partial curve, poor fit]. With `CCOC(=O)c1ccccc1NC(=O)COc1ccccc1-c1nnc(-c2ccccc2)o1` the Potency was inconclusive: 29.1 µM [cytotoxic, single point]. In the case of `C=CCNC(=O)c1c(N)n(-c2cccc(S(N)(=O)=O)c2)c2nc3ccccc3nc12`, the Potency is reported as inconclusive: 20.6 µM [cytotoxic, partial curve, poor fit]. With `CCOC(=O)C(NC(=O)c1cccc(Cl)c1)(OCc1ccc(F)cc1)C(F)(F)F` (stereo unspecified) the Potency was inconclusive: 25.9 µM [cytotoxic, partial curve, poor fit]. With `O=C(OCC(=O)N1CCC(c2ccccc2)=N1)c1ccc([N+](=O)[O-])s1` the Potency was inconclusive: 20.6 µM [cytotoxic, single point]. With `Cc1ccccc1NC(=S)N/N=C/c1ccc(O)cc1O` the Potency was inconclusive: 29.1 µM [cytotoxic, single point]. With `COc1ccc(-c2cc(NC=O)c3ncc(-c4ccc(OC)c(OC)c4)n3c2)cc1OC` the Potency was inconclusive: 29.1 µM [cytotoxic, single point].
% is set by controls: 0 for no effect and ±100 for the full control effect; potency is the fitted concentration of half-maximal effect.
